Reference: article PMC12043166
These are yes or no findings as the source states them, for the method shown. In cells and extracts the contact can be indirect.

Target: T1, protein tyrosine phosphatase nonreceptor 21 (human) (UniProt Q16825)
T1 sequence: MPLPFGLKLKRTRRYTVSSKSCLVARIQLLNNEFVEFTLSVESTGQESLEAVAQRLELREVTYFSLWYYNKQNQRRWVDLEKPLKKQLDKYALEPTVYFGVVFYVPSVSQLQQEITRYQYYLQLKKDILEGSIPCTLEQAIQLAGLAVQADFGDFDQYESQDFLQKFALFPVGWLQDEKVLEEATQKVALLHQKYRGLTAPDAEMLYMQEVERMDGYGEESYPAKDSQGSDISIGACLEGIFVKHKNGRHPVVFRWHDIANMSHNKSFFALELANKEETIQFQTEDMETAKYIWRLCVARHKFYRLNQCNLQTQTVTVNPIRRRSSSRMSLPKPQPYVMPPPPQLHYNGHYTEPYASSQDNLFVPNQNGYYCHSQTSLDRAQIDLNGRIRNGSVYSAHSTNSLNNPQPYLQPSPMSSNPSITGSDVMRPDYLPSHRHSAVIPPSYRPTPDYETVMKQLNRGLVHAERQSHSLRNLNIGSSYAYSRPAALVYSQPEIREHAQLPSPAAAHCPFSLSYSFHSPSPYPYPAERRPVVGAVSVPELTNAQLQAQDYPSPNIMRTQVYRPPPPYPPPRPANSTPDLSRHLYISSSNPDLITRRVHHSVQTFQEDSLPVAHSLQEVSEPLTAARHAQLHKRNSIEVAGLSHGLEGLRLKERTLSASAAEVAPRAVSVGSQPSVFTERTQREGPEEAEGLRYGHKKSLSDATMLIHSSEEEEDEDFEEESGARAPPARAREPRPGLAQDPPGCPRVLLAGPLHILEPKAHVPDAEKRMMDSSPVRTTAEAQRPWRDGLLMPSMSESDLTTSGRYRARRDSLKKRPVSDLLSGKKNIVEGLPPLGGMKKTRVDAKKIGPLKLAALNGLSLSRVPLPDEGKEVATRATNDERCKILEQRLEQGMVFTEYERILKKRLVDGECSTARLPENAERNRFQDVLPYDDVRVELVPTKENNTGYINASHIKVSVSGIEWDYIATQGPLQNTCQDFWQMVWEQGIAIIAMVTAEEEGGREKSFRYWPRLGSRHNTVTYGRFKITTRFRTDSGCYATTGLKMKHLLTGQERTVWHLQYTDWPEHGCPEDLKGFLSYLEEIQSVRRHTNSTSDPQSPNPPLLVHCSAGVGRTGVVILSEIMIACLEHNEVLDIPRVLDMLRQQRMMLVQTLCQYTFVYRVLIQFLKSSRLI
Assay: co-IP; cells lysed in NP-40 buffer with PMSF and protease inhibitors; lysates incubated with antibody to Cdk1, Cyclin B1, PTPN21, GADD45A or control IgG overnight at 4 °C, then protein A/G beads for six hours; beads washed 5 times; western blot; control and PTPN21-overexpressing cells compared for Cdk1 and Cyclin B1

B1: growth arrest and DNA damage-inducible 45α (protein, UniProt P24522 1-165)
chain: MTLEEFSAGEQKTERMDKVGDALEEVLSKALSQRTITVGVYEAAKLLNVDPDNVVLCLLAADEDDDRDVALQIHFTLIQAFCCENDINILRVSNPGRLAELLLLETDAGPAASEGAEQPPDLHCVLVTNPHSSQWKDPALSQLICFCRESRYMDQWVPVINLPER
B1 was tested, and the binding was “no binding”.
